Reference: article doi:10.1101/2021.05.31.446392
No constants are given. Whether binding was seen depends on the method and setting. Some binding calls cover weakened binding; strength is not graded here. Tags and fused reporters may be left off the sequences shown.

Target: T1, Gal4 DNA-binding domain (DB)-Pex19p (S. cerevisiae) (UniProt Q07418)
T1 sequence: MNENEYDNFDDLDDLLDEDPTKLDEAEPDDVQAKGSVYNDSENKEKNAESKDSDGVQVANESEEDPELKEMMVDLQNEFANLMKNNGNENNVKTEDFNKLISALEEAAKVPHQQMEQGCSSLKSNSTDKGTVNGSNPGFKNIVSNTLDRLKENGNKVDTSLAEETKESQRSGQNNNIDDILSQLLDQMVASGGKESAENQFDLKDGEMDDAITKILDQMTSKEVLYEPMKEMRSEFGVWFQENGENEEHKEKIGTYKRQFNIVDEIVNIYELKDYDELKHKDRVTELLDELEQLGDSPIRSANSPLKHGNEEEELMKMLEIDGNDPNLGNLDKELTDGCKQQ
Assay: two-hybrid

binding: binds
B1: Gal4 activation domain (AD)-Pex34p (protein, UniProt P25584 1-144)
chain: MVSKKNTAEISAKDIWENIWSGVSSLLDFFAVLENLGVVNDKLYVSGLLRKVWLCYSCISVIKCVWKLIKLCKVKFKIDQRLDGEGNGLVKDKLINFKKKYNEHIRHITAALLQDLSYLMVLIYPGTRLFKRLSNIITLCRIIV
